Assay results reported in PubChem BioAssay AID493014 (National Center for Advancing Translational Sciences (NCATS), 2011).
Hit rate of the full screen: of about 340,000 compounds, about 170 (0.05%) were called active. Inconclusive means that the source gave no clear call. Such entries were picked first, then a sample of the others. The call rests on the fitted dose curve; in most records, active means well fitted inhibition curve with a large enough effect in the signal ratio, with a control signal flat (not every such curve was filed as active); inconclusive means small, poorly fitted or top-dose-only effect, or effect the other way, or a change in a side signal; inactive means flat fitted curve, though single readings scatter; the % refers to the signal ratio. Potencies beside an inconclusive call are fits to weak or partial responses and may not hold up.

Assay: qHTS Assay to Find Inhibitors of Chronic Active B-Cell Receptor Signaling;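 on activity change, negative = inhibition: plate controls were basal doxycycline-induced cells for no effect and cells given 10 µM MG132 for full effect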
Settings: ABC-DLBCL IkBa-CBG/CBR reporter, luminescence ratio (green luciferase fused to IkBa over red control in TMD8 lymphoma cells), 4 h; activity change, negative = inhibition: at 46.1 µM (top of the series)
Procedure, shortened: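 Compounds up to 46 uM were incubated four hours with TMD8 cells whose green CBG68 luciferase is fused to IkappaBalpha; red CBR luminescence normalised the signal, and concentration-effect curves were fitted to fusion, red and ratio data.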
Potency means the concentration at half of the fitted maximal effect.

Which Potency does the source give for `CC(C)C[C@H](NC(=O)c1[nH]cnc1C(=O)N[C@@H](Cc1ccccc1)C(=O)OCc1ccccc1)C(=O)OCc1ccccc1` here?
The Potency was inconclusive: 14.1 µM [rising, partial curve, poor fit].

For `C/C(=C\c1ccccc1)C(=O)Nc1ccc(Cl)cn1`, which Potency is on record?
The Potency was inconclusive: 25.1 µM [falling, single point].

Which Potency does the source give for `CCOc1ccc2c(C)nc(NC3=NC(C)(C)C=C(C)N3)nc2c1` here?
Its Potency is inconclusive: 1.3 µM [rising, partial curve, poor fit].

Which activity change, negative = inhibition does the source give for `CCc1nnc(NC(=O)c2ccc(S(=O)(=O)N3CCCCC3)cc2)s1` here?
Its activity change, negative = inhibition is inconclusive: 6.86%.

Which activity change, negative = inhibition does the source give for `C=CCN1C(=O)C(CC(=O)NCC)SC1=Nc1ccccc1CC` (stereo unspecified) here?
The activity change, negative = inhibition was “inactive”.

Which activity change, negative = inhibition does the source give for `CN(Cc1nc(-c2ccccn2)no1)S(=O)(=O)c1ccc(Br)cc1` here?
Its activity change, negative = inhibition is inconclusive: 8.05%.

For `O=c1[nH]c(Cc2ccccc2Cl)nc2ccccc12`, which activity change, negative = inhibition is on record?
Its activity change, negative = inhibition is “inactive”.

Which Potency does the source give for `CCN(CC)c1ccc(/C=N/Nc2nc3ccccc3[nH]2)c(O)c1` here?
Its Potency is inconclusive: 20.6 µM [falling, partial curve].

With `COC(=O)C(OC(=O)c1ccc(OC)cc1)C(=O)OC` as the compound, how does the activity change, negative = inhibition read?
The activity change, negative = inhibition was inconclusive: 17.8%.

Which activity change, negative = inhibition does the source give for `O=C(c1cc(-c2cccc(Cl)c2)on1)N1CCCCCC1` here?
The activity change, negative = inhibition was “inactive”.

With `COC(=O)c1sccc1NC(=O)CC1C(=O)NCCN1C(=O)Nc1cc(Cl)ccc1OC` (stereo unspecified) as the compound, how does the activity change, negative = inhibition read?
Its activity change, negative = inhibition is “inactive”.

Which activity change, negative = inhibition does the source give for `CC(=O)c1cnc2cc(-c3ccccc3)nn2c1C` here?
The activity change, negative = inhibition was inconclusive: 0.107%.

For `c1ccc(-n2nnnc2-c2cnc(-c3ccncc3)nc2-c2cccs2)cc1`, which activity change, negative = inhibition is on record?
Its activity change, negative = inhibition is inconclusive: -27.1%.

With `CSCc1c(C(=O)Nc2ccc3c(c2)OCO3)oc2ccccc12` as the compound, how does the activity change, negative = inhibition read?
The activity change, negative = inhibition was inconclusive: -4.07%.

With `COc1ccc(OCCSc2nnc3sc4ccccc4n23)cc1` as the compound, how does the activity change, negative = inhibition read?
The activity change, negative = inhibition was “inactive”.

For `O=C(CCSc1ccccc1)N1CCOCC1`, which activity change, negative = inhibition is on record?
Its activity change, negative = inhibition is inconclusive: 4.01%.

For `CCCCNC(=O)c1ccc2c(c1)ncn2C1CCCC1`, which Potency is on record?
The Potency was inconclusive: 29.1 µM [falling, single point].

Which activity change, negative = inhibition does the source give for `CCN1C(=O)C(CC(=O)Nc2ccc(F)cc2)N(CCc2ccc(OC)cc2)C1=S` (stereo unspecified) here?
The activity change, negative = inhibition was inconclusive: -9.38%.

With `Fc1cccc(NC(=S)NNc2ccccc2)c1` as the compound, how does the Potency read?
The Potency was inconclusive: 14.1 µM [falling, single point].

Which Potency does the source give for `Nc1nn(-c2cccc(F)n2)cc1-c1ccc(Cl)cc1` here?
Its Potency is inconclusive: 11.2 µM [falling, partial curve].

With `CCC(CC)Nc1ccc(C(CC(N)=O)NC(=O)Cc2cccc3ccccc23)cc1[N+](=O)[O-]` (stereo unspecified) as the compound, how does the activity change, negative = inhibition read?
Its activity change, negative = inhibition is “inactive”.

For `CCC(C)(C)c1ccc(OCCCC[n+]2ccc(C)cc2)c(C(C)(C)CC)c1`, which activity change, negative = inhibition is on record?
The activity change, negative = inhibition was “inactive”.

For `C/C(=N\Nc1nncc2ccccc12)c1ccc(OCC(=O)N(C)C)cc1`, which Potency is on record?
Its Potency is inconclusive: 35.5 µM [falling, single point].

Which activity change, negative = inhibition does the source give for `CC1CCN(S(=O)(=O)c2ccc(NC(=O)CN3CCN(c4ccccc4)CC3)cc2)CC1` here?
Its activity change, negative = inhibition is “inactive”.

With `Cn1cnnc1SCC(=O)NC1CCCC1` as the compound, how does the activity change, negative = inhibition read?
Its activity change, negative = inhibition is “inactive”.

For `O=C(Nc1nnc(-c2ccc(Cl)cc2)o1)c1nc2ccccc2s1`, which activity change, negative = inhibition is on record?
Its activity change, negative = inhibition is “inactive”.

With `COc1ccccc1NC(=O)C(C)N(C)Cc1ccc(Cl)s1` (stereo unspecified) as the compound, how does the activity change, negative = inhibition read?
Its activity change, negative = inhibition is inconclusive: 18%.

Which Potency does the source give for `CCOc1ccc(S(=O)(=O)Nc2nc3ccccc3nc2Nc2ccc(N3CCOCC3)cc2)cc1` here?
Its Potency is inconclusive: 2.91 µM [rising, full curve, poor fit].

Which activity change, negative = inhibition does the source give for `O=S(=O)(c1ccccc1)c1ccc(N2CCCCCC2)cc1` here?
The activity change, negative = inhibition was inconclusive: 3.66%.

For `Cc1nc2c(-c3ccccc3)c(C)[nH]n2c(=O)c1Cl`, which activity change, negative = inhibition is on record?
The activity change, negative = inhibition was inconclusive: -15.6%.

Which Potency does the source give for `CCN(CC)c1ccc2cc(-c3nc(-c4ccccc4)no3)c(=O)oc2c1` here?
The Potency was inconclusive: 0.447 µM [falling, full curve, poor fit].

For `CCOC(=O)C1=CN(CC)S(=O)(=O)NC1c1ccc(F)c(Cl)c1` (stereo unspecified), which Potency is on record?
Its Potency is inconclusive: 29.1 µM [falling, partial curve, poor fit].

Which activity change, negative = inhibition does the source give for `CCOC(=O)C1CCCN(C(=O)COc2ccccc2O)C1` (stereo unspecified) here?
The activity change, negative = inhibition was inconclusive: 11.7%.

For `COc1ccc(NC(=O)/C=C/c2ccc(OC)c(OC)c2)cn1`, which activity change, negative = inhibition is on record?
Its activity change, negative = inhibition is inconclusive: -4.58%.

For `CCCCNc1ncnc2c1cnn2-c1ccc(Cl)cc1`, which activity change, negative = inhibition is on record?
Its activity change, negative = inhibition is inconclusive: 2.74%.

Which Potency does the source give for `O=c1c2cc(Cl)ccc2nc(-c2ccc([N+](=O)[O-])cc2)n1O` here?
Its Potency is inconclusive: 35.5 µM [rising, single point].

For `Cc1ccc(N(CC(=O)Nc2ccc3c(c2)OCCO3)S(=O)(=O)c2c(C)n[nH]c2C)cc1`, which activity change, negative = inhibition is on record?
Its activity change, negative = inhibition is inconclusive: 5.16%.

For `COC(=O)[C@@]12CCCN1[C@H](c1ccc(-c3cccc(Cl)c3)c(OC)c1)[C@H]1C(=O)N(C)C(=O)[C@H]12`, which activity change, negative = inhibition is on record?
The activity change, negative = inhibition was “inactive”.

For `CCN1CCN(c2ccc(S(=O)(=O)N3CCCCC3)cc2NC(=O)Cc2ccccc2)CC1`, which activity change, negative = inhibition is on record?
Its activity change, negative = inhibition is inconclusive: 3.28%.

Which Potency does the source give for `O=[N+]([O-])c1ccc(N/N=C/c2cn(-c3ccccc3)nc2-c2ccccc2)cc1` here?
Its Potency is inconclusive: 35.5 µM [rising, single point].

Which activity change, negative = inhibition does the source give for `O=C(Sc1nnc(-c2ccccc2)o1)N1c2ccccc2Sc2ccccc21` here?
The activity change, negative = inhibition was “inactive”.

Which activity change, negative = inhibition does the source give for `Cn1c(=NC(=O)c2ccco2)sc2ccccc21` here?
The activity change, negative = inhibition was “inactive”.

For `Cc1ccc(NC(=O)CCCN2C(=O)/C(=C/C=C/c3ccccc3)SC2=S)cc1`, which Potency is on record?
Its Potency is inconclusive: 13 µM [falling, partial curve].

With `CC(NC(=O)COC(=O)C1=NN(c2ccccc2)C(=O)CC1)c1ccccc1` (stereo unspecified) as the compound, how does the activity change, negative = inhibition read?
Its activity change, negative = inhibition is inconclusive: 7.31%.

For `OCCN1CCN(CC(O)COc2ccc(-c3ccccc3)cc2)CC1` (stereo unspecified), which activity change, negative = inhibition is on record?
The activity change, negative = inhibition was inconclusive: 27.6%.

For `C=C1C(=O)[C@@]23[C@H](O)C[C@@H]4C(C)(C)CC[C@H](O)[C@]4(C)[C@@H]2C[C@H](O)[C@@H]1[C@H]3O`, which activity change, negative = inhibition is on record?
Its activity change, negative = inhibition is inconclusive: 16.9%.

For `O=C(Nc1ccc(Cl)cc1)c1cccnc1N1CCCCC1`, which activity change, negative = inhibition is on record?
The activity change, negative = inhibition was “inactive”.

With `O=C(NCCCN1CCN(c2cccc(Cl)c2)CC1)c1ccc(N2CCCC2=O)cc1` as the compound, how does the activity change, negative = inhibition read?
The activity change, negative = inhibition was inconclusive: -6%.

For `CSc1cccc(NC(=O)c2[nH]c(C)c(C(C)=O)c2C)c1`, which activity change, negative = inhibition is on record?
Its activity change, negative = inhibition is inconclusive: -0.834%.

For `NC(=O)C1(N2CCCCC2)CCN(Cc2ccc(F)cc2)CC1`, which Potency is on record?
The Potency was inconclusive: 32.6 µM [falling, single point].

For `O=c1oc(-c2ccccc2)cc(Cl)c1Cl`, which activity change, negative = inhibition is on record?
Its activity change, negative = inhibition is inconclusive: 4.44%.
